Data as given in the NIST ThermoML archive (doi:10.1021/je400683g).
± gives the expanded uncertainty stated by the source.

Conditions: 298.15 K; 101.33 kPa; Liquid; Vibrating tube method

- mass density: 785.06 ± 0.12 kg/m3
SMILES: CCO [ethanol]
